Patent US8779202B2, “Compositions and methods for the treatment of giardiasis” (Georgetown University, priority 2009, dated 2014)
Some entries share one result that the patent states for a list of compounds.

How the values were obtained:
[1] = tested on: IEC-6 cells; assay: Short-term IEC-6 viability and attachment (DEAD Red / SYTO 16 dual stain); format: cell-based; details: for IEC-6 cells remained attached / IEC-6 cells remained viable: 50 μM, two hours, in PBS; for IEC-6 cells remained attached and viable: amounts as low as 5 μM
[2] = tested on: IEC-6 cells; assay: Long-term IEC-6 viability and attachment (Trypan Blue exclusion); format: cell-based, rat; details: 50 μM, 2-48 hours, in culture media

| SMILES | IEC-6 cells remained attached [1] | IEC-6 cells remained viable [1] | IEC-6 cells remained attached and viable [1] | IEC-6 cells remained viable [2] |
| --- | --- | --- | --- | --- |
| O=C1C=C(N2CCN(c3ccccn3)CC2)C(=O)c2c(O)ccc(O)c21 [Compound IV-1] | at least 50% |  |  |  |
| Oc1ccc2ccccc2c1CN(Cc1c(O)ccc2ccccc12)C1CCCCC1 [Compound I-16] | at least 50% | at least 75% | at least 85% |  |
| Nc1nc(SCc2ccccc2[N+](=O)[O-])c2[nH]cnc2n1 [Compound V-1] | at least 50% |  |  | at least 75% |
| Cc1c(Cl)cc(C(C)(C)C)c(O)c1Cc1c(C)c(Cl)cc(C(C)(C)C)c1O [Compound VI-1] | at least 50% | at least 75% | at least 85% |  |
